Assay results published in the supplement of paper PMC10849652.
Some of the results follow.

The chains behind the UniProt entries cited, without tags or fusion partners. Where a name states a change or a piece, a line headed by the entry shows the natural chain unless it says otherwise.
UniProt Q9NVT9: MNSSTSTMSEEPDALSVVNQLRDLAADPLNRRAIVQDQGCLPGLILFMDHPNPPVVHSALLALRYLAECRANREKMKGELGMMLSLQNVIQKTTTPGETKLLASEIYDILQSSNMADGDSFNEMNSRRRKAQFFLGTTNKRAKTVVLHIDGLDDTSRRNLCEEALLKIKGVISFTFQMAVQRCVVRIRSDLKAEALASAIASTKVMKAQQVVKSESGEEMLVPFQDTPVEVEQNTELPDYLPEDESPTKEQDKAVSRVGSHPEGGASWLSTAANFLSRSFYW
UniProt P02647, whole entry, looked up: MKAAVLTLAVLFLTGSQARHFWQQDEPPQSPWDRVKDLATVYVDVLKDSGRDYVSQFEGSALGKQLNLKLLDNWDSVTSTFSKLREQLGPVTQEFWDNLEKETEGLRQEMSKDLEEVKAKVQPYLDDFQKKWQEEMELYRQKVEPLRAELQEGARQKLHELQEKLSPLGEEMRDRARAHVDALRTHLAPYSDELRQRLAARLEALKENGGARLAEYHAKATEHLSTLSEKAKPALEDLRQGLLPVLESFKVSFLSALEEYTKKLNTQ
UniProt O15013: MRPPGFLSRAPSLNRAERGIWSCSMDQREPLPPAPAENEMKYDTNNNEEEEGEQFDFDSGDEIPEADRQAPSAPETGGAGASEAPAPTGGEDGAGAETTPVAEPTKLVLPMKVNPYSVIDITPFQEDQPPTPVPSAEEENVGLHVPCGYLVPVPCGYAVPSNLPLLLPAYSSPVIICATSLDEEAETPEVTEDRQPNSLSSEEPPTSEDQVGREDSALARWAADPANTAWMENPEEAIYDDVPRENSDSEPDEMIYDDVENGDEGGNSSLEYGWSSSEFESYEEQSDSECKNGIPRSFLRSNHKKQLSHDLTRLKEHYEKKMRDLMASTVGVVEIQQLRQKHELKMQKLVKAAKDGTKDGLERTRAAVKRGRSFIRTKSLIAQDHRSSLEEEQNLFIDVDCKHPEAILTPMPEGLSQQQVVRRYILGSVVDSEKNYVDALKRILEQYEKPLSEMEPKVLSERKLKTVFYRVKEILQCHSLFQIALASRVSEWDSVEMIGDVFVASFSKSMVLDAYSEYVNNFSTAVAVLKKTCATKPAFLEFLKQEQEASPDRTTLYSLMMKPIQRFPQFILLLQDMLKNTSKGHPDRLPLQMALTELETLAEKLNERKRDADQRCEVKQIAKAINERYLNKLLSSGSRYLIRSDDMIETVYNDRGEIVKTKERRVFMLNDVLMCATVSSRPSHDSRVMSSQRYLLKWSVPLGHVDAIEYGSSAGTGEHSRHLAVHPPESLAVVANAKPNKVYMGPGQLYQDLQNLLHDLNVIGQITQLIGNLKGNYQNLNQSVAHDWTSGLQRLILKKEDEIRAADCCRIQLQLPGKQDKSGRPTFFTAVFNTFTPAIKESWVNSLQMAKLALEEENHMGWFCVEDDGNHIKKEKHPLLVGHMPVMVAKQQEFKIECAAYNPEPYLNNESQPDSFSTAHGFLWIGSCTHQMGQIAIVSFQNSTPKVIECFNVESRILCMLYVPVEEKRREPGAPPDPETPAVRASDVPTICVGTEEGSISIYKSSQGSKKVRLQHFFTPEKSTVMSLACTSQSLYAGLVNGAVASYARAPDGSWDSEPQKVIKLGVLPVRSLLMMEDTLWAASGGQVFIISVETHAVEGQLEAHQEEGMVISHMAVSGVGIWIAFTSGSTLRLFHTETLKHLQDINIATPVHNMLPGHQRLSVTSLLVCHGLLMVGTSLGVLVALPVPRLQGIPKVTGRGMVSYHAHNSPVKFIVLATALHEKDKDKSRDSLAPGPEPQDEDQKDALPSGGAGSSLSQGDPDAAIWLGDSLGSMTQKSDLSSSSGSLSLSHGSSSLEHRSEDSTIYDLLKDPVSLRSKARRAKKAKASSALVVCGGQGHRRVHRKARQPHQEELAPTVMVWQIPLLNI
UniProt Q9H993: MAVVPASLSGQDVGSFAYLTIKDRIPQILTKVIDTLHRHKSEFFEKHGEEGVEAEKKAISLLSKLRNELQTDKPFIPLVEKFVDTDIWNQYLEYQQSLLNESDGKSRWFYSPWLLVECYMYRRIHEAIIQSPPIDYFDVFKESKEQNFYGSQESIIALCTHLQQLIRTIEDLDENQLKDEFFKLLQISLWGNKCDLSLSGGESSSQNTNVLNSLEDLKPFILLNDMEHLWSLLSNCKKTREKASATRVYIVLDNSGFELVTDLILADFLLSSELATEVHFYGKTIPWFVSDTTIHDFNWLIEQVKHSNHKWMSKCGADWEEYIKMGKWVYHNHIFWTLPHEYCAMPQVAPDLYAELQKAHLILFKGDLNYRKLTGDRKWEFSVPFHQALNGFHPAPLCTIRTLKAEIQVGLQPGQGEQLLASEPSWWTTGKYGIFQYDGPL
UniProt Q9NXU5: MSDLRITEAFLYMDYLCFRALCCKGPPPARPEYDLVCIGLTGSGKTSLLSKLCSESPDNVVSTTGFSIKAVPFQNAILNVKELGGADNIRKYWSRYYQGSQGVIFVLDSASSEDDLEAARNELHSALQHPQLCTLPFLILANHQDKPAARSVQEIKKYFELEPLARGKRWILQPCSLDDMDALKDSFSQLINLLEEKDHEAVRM
UniProt Q9BZZ5: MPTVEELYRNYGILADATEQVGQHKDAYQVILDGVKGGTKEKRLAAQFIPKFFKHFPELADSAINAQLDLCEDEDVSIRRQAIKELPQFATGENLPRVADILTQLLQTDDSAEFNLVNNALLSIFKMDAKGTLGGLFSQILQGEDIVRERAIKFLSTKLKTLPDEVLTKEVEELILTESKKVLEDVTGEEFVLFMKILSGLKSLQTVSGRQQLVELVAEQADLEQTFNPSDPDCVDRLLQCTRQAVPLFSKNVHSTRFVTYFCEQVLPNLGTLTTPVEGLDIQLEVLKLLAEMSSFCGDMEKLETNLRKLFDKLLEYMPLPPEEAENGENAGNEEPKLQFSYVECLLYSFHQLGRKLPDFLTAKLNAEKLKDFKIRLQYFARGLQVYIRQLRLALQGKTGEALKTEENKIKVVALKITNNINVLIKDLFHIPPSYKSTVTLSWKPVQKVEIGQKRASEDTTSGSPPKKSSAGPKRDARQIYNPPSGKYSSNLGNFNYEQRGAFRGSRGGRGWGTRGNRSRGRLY
UniProt Q9NZN5: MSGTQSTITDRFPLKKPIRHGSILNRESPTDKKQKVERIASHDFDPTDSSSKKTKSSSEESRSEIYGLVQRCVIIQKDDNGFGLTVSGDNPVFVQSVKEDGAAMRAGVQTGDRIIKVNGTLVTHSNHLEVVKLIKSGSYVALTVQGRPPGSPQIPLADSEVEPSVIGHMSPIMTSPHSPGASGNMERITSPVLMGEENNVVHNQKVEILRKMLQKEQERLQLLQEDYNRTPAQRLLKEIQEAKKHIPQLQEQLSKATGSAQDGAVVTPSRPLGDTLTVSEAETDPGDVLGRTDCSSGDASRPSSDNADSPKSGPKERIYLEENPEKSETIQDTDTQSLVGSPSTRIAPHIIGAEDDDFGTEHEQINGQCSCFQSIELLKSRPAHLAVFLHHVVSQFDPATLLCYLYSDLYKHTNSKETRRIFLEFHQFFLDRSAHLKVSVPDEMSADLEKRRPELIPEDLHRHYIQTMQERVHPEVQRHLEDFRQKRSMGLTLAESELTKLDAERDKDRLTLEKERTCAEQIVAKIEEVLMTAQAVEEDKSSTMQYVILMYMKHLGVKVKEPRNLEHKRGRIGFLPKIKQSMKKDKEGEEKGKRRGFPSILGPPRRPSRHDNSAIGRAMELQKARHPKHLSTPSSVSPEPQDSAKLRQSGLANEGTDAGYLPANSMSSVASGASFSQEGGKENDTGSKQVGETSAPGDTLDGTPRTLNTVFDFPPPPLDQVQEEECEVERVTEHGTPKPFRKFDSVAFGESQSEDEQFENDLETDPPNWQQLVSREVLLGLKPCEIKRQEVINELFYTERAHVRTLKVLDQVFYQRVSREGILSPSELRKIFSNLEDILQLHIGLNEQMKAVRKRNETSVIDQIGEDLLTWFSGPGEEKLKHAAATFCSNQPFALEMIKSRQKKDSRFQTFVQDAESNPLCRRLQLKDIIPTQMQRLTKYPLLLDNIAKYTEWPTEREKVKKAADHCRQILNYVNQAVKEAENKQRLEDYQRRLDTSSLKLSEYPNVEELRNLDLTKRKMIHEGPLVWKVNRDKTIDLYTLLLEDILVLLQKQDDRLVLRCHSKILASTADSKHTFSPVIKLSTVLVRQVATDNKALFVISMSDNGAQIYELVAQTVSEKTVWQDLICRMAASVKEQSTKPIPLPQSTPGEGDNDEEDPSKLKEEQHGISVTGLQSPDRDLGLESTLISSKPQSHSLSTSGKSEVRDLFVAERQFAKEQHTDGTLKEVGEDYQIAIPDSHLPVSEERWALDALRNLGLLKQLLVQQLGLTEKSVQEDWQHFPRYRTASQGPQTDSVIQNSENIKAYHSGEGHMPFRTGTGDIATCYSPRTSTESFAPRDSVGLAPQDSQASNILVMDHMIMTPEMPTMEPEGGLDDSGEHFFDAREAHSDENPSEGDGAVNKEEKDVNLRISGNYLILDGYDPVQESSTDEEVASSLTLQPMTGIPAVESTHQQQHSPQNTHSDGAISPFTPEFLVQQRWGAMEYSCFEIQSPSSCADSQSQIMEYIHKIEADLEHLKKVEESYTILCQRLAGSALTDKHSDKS
UniProt P49407: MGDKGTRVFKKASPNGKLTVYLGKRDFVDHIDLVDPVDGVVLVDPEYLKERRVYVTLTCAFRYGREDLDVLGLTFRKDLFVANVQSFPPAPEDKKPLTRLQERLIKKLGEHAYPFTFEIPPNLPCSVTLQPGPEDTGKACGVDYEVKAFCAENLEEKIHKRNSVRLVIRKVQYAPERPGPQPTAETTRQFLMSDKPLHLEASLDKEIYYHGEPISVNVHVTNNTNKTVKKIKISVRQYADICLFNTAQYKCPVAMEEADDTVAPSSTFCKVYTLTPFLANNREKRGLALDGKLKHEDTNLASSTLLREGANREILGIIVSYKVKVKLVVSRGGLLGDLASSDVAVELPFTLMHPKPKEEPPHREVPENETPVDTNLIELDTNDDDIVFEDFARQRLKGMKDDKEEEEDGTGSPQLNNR
UniProt Q9HDC9: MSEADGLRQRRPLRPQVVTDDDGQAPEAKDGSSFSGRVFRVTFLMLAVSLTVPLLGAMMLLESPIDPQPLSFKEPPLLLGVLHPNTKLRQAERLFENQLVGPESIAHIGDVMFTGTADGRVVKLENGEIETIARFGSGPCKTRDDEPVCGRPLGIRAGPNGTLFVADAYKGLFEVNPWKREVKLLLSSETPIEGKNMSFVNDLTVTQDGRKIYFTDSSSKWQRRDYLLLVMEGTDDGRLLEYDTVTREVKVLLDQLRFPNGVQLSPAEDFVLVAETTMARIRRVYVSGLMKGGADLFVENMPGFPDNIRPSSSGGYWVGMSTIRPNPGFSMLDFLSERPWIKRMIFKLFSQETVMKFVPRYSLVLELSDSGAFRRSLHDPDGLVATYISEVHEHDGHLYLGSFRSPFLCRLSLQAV
UniProt P13798: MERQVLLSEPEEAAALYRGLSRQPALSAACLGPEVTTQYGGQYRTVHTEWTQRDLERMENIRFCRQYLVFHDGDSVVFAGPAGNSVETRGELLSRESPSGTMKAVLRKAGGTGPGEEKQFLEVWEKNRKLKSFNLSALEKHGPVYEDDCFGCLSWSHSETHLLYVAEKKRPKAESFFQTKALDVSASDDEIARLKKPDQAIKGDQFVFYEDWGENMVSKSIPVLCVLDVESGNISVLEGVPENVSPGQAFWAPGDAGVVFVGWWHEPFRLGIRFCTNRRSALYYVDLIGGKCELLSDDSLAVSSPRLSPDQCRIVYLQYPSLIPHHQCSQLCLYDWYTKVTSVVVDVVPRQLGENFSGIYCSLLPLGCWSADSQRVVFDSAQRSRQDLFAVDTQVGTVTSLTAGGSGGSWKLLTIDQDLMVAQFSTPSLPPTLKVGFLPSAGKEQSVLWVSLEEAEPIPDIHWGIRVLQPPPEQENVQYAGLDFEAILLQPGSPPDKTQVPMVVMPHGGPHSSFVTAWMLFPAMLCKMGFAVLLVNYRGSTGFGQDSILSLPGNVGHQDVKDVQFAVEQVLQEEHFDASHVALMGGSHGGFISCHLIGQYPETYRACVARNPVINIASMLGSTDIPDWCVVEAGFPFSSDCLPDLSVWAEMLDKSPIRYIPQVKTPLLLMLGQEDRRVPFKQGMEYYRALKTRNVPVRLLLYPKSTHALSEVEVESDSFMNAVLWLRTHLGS
UniProt Q9HC16: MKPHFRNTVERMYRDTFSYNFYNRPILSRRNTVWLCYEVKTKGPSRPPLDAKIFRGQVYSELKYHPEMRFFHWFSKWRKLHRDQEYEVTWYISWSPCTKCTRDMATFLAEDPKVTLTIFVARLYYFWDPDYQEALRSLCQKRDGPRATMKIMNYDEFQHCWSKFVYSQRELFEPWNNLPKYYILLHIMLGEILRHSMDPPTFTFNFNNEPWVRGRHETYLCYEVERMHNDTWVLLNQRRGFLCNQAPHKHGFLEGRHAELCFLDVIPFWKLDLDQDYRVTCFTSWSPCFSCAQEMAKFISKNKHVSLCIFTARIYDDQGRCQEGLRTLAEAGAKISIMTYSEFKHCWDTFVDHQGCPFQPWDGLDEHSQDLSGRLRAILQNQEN

Experiments:
Test in all cases: log2 fold change, soluble protein after heating vs DMSO (PISA); higher = thermal stabilisation; K562 lysate, 10 uM; active = over 0.2 and 3.5 SD of the protein, either way, in both replicates (recomputed)
erlotinib = compound: C#Cc1cccc(Nc2ncnc3cc(OCCOC)c(OCCOC)cc23)c1 [erlotinib]
Summary of the method: (§1)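 Dounce homogenisation of K562 pellets in PBS pH 7.4 with 1 mM MgCl2 produced a crude extract, used at 1 mg/mL protein. Exposure to 10 μM compound lasted 30 min, and aliquots were then heated for 3 min across 48°C-58°C, pooled and brought to 0.5% NP-40 at 4°C. The supernatant after 21,000xg for 90 min was quantified by TMTpro 16plex LC-MS/MS with channel sums equalised. Duplicate values are given as log-two fold change in thermal stability relative to solvent controls.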

[1] = compound: C/C(=N\NC(=O)C1=CC(=CC=C1)S(=O)(=O)N2CCOCC2)/C3=C(C=CC(=C3)Cl)O
Summary of the method: as §1

[2] = compound: C1=CC(=CC=C1C2=NC3=C(N2)C=C(C=C3)C(=O)N)OC4=CC=C(C=C4)Cl
Summary of the method: as §1

[3] = compound: C1=CC2=C(C=CC(=C2)/C=C\3/C(=O)NC(=NCC4=CC=CS4)S3)N=C1
Summary of the method: as §1

[4] = compound: C1=CC2=NC=CN=C2C=C1/C=C/3\C(=O)NC(=O)S3
Summary of the method: as §1

[5] = compound: C1=CC=C(C=C1)C2=NC(=C(N2)C3=CC=NC=C3)C4=CC(=C(C=C4)Cl)O
Summary of the method: as §1

[6] = compound: C1=CC=C2C(=C1)C3=NNC4=CC=CC(=C43)C2=O
Summary of the method: as §1

[7] = compound: C1CCN(C1)C(=O)NC2=CC=CC(=C2)NC3=NC=C(C(=N3)NCCC4=CN=CN4)Br
Summary of the method: as §1

[8] = compound: C1CN(CCC1(CC2=CC=C(C=C2)Cl)N)C3=NC=NC4=C3C=CN4
Summary of the method: as §1

IRAK-1-4 Inhibitor I = compound: C1COCCN1CCN2C3=CC=CC=C3N=C2NC(=O)C4=CC(=CC=C4)[N+](=O)[O-] [IRAK-1-4 Inhibitor I]
Summary of the method: as §1

ibrutinib = compound: C=CC(=O)N1CCC[C@@H](n2nc(-c3ccc(Oc4ccccc4)cc3)c3c(N)ncnc32)C1 [ibrutinib]
Summary of the method: as §1

[9] = compound: CC(=O)c1cnc2ccc(-c3cc(Cl)c(O)c(Cl)c3)nc2c1N[C@H]1CC[C@H](CN(C)C)CC1
Summary of the method: as §1

ralimetinib = compound: CC(C)(C)Cn1c(N)nc2ccc(-c3[nH]c(C(C)(C)C)nc3-c3ccc(F)cc3)nc21 [ralimetinib]
Summary of the method: as §1

[10] = compound: CC(C)(O)CC(=O)NCCn1ccc2ncnc(Nc3ccc(Oc4cccc(C(F)(F)F)c4)c(Cl)c3)c21
Summary of the method: as §1

[11] = compound: CC(C)C1=C2N=C(C=C(N2N=C1)NCC3=CC=CC=C3)NCCCCCCN
Summary of the method: as §1

[12] = compound: CC1=C(C(CC(=O)N1)C2=CC=C(C=C2)C(F)(F)F)C(=O)NC3=C(C=C4C(=C3)C=NN4)F
Summary of the method: as §1

[13] = compound: CC1=C(C2=C(C=C1)C(=O)C3=CC=CC=C3N2CCCN)C
Summary of the method: as §1

[14] = compound: CC1=C(C=C(C=C1)NC(=O)C2=CC(=CC=C2)C(C)(C)C#N)NC3=CC4=C(C=C3)N=CN(C4=O)C
Summary of the method: as §1

[15] = compound: CC1=C(C=C(C=C1)NC(=O)C2=CC(=CC=C2)N(C)C)NC(=O)C3=CC=C(C=C3)O
Summary of the method: as §1

[16] = compound: CC1=CC=C(C=C1)SC2=C3C=C(SC3=CN=C2)C(=O)N
Summary of the method: as §1

Measured: log2 fold change

ARMC1 (UniProt Q9NVT9)
inactive: erlotinib -0.014 | [1] -0.003 | [2] -0.011 | [3] -0.037 | [4] 0.004 | [5] 0.011 | [6] -0.049 | [7] -0.06 | [8] 0 | IRAK-1-4 Inhibitor I -0.003 | ibrutinib 0.016 | [9] -0.032 | ralimetinib 0.001 | [10] 0.006 | [11] -0.008 | [12] -0.042 | [13] -0.04 | [14] 0.016 | [15] -0.012 | [16] 0

ARSA (UniProt P15289)
inactive: erlotinib -0.133 | [1] 0.033 | [2] -0.002 | [3] 0.001 | [4] -0.033 | [5] 0.037 | [6] -0.039 | [7] -0.02 | [8] 0.006 | IRAK-1-4 Inhibitor I -0.004 | ibrutinib -0.112 | [9] 0.05 | ralimetinib 0.094 | [10] 0 | [11] 0.035 | [12] 0.008 | [13] 0.007 | [14] 0.017 | [15] -0.103 | [16] -0.026

APOA1 (UniProt P02647)
inactive: erlotinib -0.015 | [1] -0.095 | [2] -0.085 | [3] 0.045 | [4] 0.045 | [5] 0.269 | [6] -0.015 | [7] 0.072 | [8] -0.009 | IRAK-1-4 Inhibitor I -0.015 | ibrutinib 0.025 | [9] -0.039 | ralimetinib -0.114 | [10] 0.039 | [11] -0.023 | [12] 0.121 | [13] -0.014 | [14] 0.057 | [15] -0.009 | [16] -0.068

ARHGEF10 (UniProt O15013)
inactive: erlotinib 0.107 | [1] -0.308 | [2] 0.111 | [3] 0.102 | [4] -0.098 | [5] 0 | [6] 0.019 | [7] 0.022 | [8] -0.087 | IRAK-1-4 Inhibitor I 0.077 | ibrutinib 0.194 | [9] -0.084 | ralimetinib 0.104 | [10] 0.1 | [11] 0.26 | [12] 0.144 | [13] -0.042 | [14] -0.011 | [15] 0.029 | [16] 0.005

ARMT1 (UniProt Q9H993)
inactive: erlotinib 0 | [1] -0.018 | [2] 0 | [3] 0.014 | [4] 0.017 | [5] 0.005 | [6] -0.038 | [7] -0.021 | [8] 0.026 | IRAK-1-4 Inhibitor I -0.013 | ibrutinib -0.012 | [9] -0.003 | ralimetinib 0.002 | [10] -0.01 | [11] 0 | [12] -0.06 | [13] 0.036 | [14] 0.013 | [15] 0.021 | [16] 0.016

ARPC3 (UniProt O15145)
inactive: erlotinib -0.066 | [1] -0.026 | [2] -0.017 | [3] -0.014 | [4] 0.02 | [5] -0.033 | [6] 0.021 | [7] 0.004 | [8] -0.024 | IRAK-1-4 Inhibitor I -0.03 | ibrutinib 0.043 | [9] 0.013 | ralimetinib -0.027 | [10] 0.017 | [11] -0.019 | [12] -0.016 | [13] 0.013 | [14] -0.047 | [15] -0.031 | [16] 0.015

ARL15 (UniProt Q9NXU5)
inactive: erlotinib -0.035 | [1] 0.004 | [2] -0.009 | [3] 0.011 | [4] 0.079 | [5] -0.033 | [6] 0.005 | [7] 0.004 | [8] -0.031 | IRAK-1-4 Inhibitor I 0.038 | ibrutinib -0.015 | [9] 0.048 | ralimetinib -0.012 | [10] -0.05 | [11] 0.015 | [12] 0.005 | [13] 0.005 | [14] 0.001 | [15] 0.033 | [16] -0.005

API5 (UniProt Q9BZZ5)
inactive: erlotinib -0.003 | [1] 0.033 | [2] 0.007 | [3] 0.007 | [4] -0.001 | [5] -0.012 | [6] 0.029 | [7] -0.003 | [8] 0.013 | IRAK-1-4 Inhibitor I 0.008 | ibrutinib 0 | [9] -0.019 | ralimetinib -0.012 | [10] -0.029 | [11] -0.015 | [12] -0.016 | [13] -0.005 | [14] 0.033 | [15] -0.016 | [16] -0.015

ARHGEF12 (UniProt Q9NZN5)
inactive: erlotinib -0.01 | [1] 0.022 | [2] 0.011 | [3] -0.019 | [4] -0.007 | [5] -0.006 | [6] 0.003 | [7] -0.018 | [8] -0.029 | IRAK-1-4 Inhibitor I 0.004 | ibrutinib -0.033 | [9] -0.005 | ralimetinib 0.032 | [10] -0.043 | [11] 0.01 | [12] 0.003 | [13] -0.029 | [14] -0.04 | [15] 0.025 | [16] -0.015

ARRB1 isoform 2 (UniProt P49407)
inactive: erlotinib 0.013 | [1] -0.027 | [2] 0.085 | [3] -0.105 | [4] 0.089 | [5] -0.035 | [6] 0.078 | [7] 0.113 | [8] -0.044 | IRAK-1-4 Inhibitor I 0.021 | ibrutinib 0.07 | [9] -0.036 | ralimetinib 0.075 | [10] -0.032 | [11] 0.051 | [12] -0.146 | [13] 0.043 | [14] 0.04 | [15] -0.007 | [16] 0.039

ARHGEF1 (UniProt M0QZR4)
inactive: erlotinib 0.018 | [1] 0.024 | [2] -0.023 | [3] 0.002 | [4] 0.027 | [5] 0.001 | [6] -0.041 | [7] -0.004 | [8] -0.022 | IRAK-1-4 Inhibitor I -0.031 | ibrutinib -0.009 | [9] -0.001 | ralimetinib 0.009 | [10] -0.008 | [11] 0.019 | [12] -0.015 | [13] 0.007 | [14] 0.002 | [15] 0.015 | [16] 0.005

APMAP (UniProt Q9HDC9)
inactive: erlotinib -0.038 | [1] 0.445 | [2] 0.004 | [3] -0.021 | [4] 0.008 | [5] -0.04 | [6] -0.019 | [7] 0.018 | [8] -0.018 | IRAK-1-4 Inhibitor I 0.035 | ibrutinib 0.044 | [9] 0.004 | ralimetinib 0.069 | [10] 0.007 | [11] 0.011 | [12] -0.016 | [13] 0.039 | [14] 0.006 | [15] 0.006 | [16] 0.014

APEH (UniProt P13798)
inactive: erlotinib -0.004 | [1] 0.005 | [2] -0.004 | [3] 0.02 | [4] 0.013 | [5] -0.003 | [6] 0.005 | [7] 0.002 | [8] -0.002 | IRAK-1-4 Inhibitor I -0.008 | ibrutinib 0.016 | [9] -0.008 | ralimetinib -0.002 | [10] -0.019 | [11] -0.016 | [12] -0.032 | [13] -0.01 | [14] -0.002 | [15] -0.035 | [16] 0.011

APOBEC3G (UniProt Q9HC16)
inactive: erlotinib 0.026 | [1] 0.054 | [2] 0.014 | [3] -0.043 | [4] 0.152 | [5] 0.054 | [6] 0.024 | [7] 0.064 | [8] -0.006 | IRAK-1-4 Inhibitor I -0.039 | ibrutinib -0.084 | [9] -0.035 | ralimetinib 0.086 | [10] 0.022 | [11] -0.017 | [12] 0.034 | [13] -0.061 | [14] 0.019 | [15] 0.057 | [16] 0.044

Copied from above (two entries):
ARRB1 isoform 2 (UniProt P49407)
inactive: erlotinib 0.013 | [1] -0.027 | [2] 0.085 | [3] -0.105 | [4] 0.089 | [5] -0.035 | [6] 0.078 | [7] 0.113 | [8] -0.044 | IRAK-1-4 Inhibitor I 0.021 | ibrutinib 0.07 | [9] -0.036 | ralimetinib 0.075 | [10] -0.032 | [11] 0.051 | [12] -0.146 | [13] 0.043 | [14] 0.04 | [15] -0.007 | [16] 0.039

ARHGEF1 (UniProt M0QZR4)
inactive: erlotinib 0.018 | [1] 0.024 | [2] -0.023 | [3] 0.002 | [4] 0.027 | [5] 0.001 | [6] -0.041 | [7] -0.004 | [8] -0.022 | IRAK-1-4 Inhibitor I -0.031 | ibrutinib -0.009 | [9] -0.001 | ralimetinib 0.009 | [10] -0.008 | [11] 0.019 | [12] -0.015 | [13] 0.007 | [14] 0.002 | [15] 0.015 | [16] 0.005

Further records

ARHGAP6 (UniProt O43182)
inactive: erlotinib 0.013 | [1] -0.145 | [2] -0.04 | [3] 0.061 | [4] 0.07 | [5] 0.041 | [6] -0.005 | [7] -0.016 | [8] 0.037 | IRAK-1-4 Inhibitor I 0.015 | ibrutinib 0.081 | [9] -0.008 | ralimetinib -0.018 | [10] -0.038 | [11] -0.017 | [12] 0.101 | [13] -0.007 | [14] 0.002 | [15] 0.01 | [16] -0.018

ASAP1 isoform 2 (UniProt Q9ULH1)
inactive: erlotinib 0.002 | [1] 0.004 | [2] 0.026 | [3] -0.016 | [4] -0.016 | [5] 0.026 | [6] -0.045 | [7] -0.008 | [8] 0.023 | IRAK-1-4 Inhibitor I -0.004 | ibrutinib 0.016 | [9] -0.007 | ralimetinib 0.037 | [10] -0.02 | [11] 0 | [12] -0.037 | [13] -0.009 | [14] 0.009 | [15] 0.007 | [16] 0.016
